# Reference: the supplement of paper PMC9135407
# Several values for one entry are separate records, joined by “and”; a condition that tells them apart may be missing. Identical values can stand only once. Counter-ions that a name gives are not always drawn. ± gives the standard deviation of the averaged measurements. This is one part of the list. Baselines shift from plate to plate; read single values as rough.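 Assay uses culture-activated primary human stellate myofibroblasts; lipid droplet recovery indicates inactivation. Measured: proportion of Hoechst-counted cells over a plate-specific Bodipy cutoff, duplicate wells, DMSO and nortriptyline as per-plate negative and positive controls. A hit scores, control-normalized, above the plate's top-tenth-percentile nortriptyline wells or ranks among its three best wells. Final well concentrations not reported.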
# System: primary human hepatic stellate cells (donor 1)
# Experiment: percent Bodipy-positive cells; higher = more lipid droplet accumulation
# Conditions: 48 h
# [1] = library stock concentration: 10 mM
# [2] = library stock concentration: 3.33 mM
# [3] = library stock concentration: 1 mM
# [4] = library stock concentration: 2 mM
# [5] = library stock concentration: 400 uM
smiles,measurement,setting,value
CC[C@@H](C(=O)[C@@H](C)[C@@H](O)[C@H](C)CCc1ccc(C)c(O)c1C(=O)O)[C@H]1O[C@](CC)([C@H]2CC[C@](O)(CC)[C@H](C)O2)C[C@@H]1C [Lasalocid sodium],percent Bodipy-positive cells,[1],76.7 ± 0.81%
CC[C@@H](C(=O)[C@@H](C)[C@@H](O)[C@H](C)CCc1ccc(C)c(O)c1C(=O)O)[C@H]1O[C@](CC)([C@H]2CC[C@](O)(CC)[C@H](C)O2)C[C@@H]1C [Lasalocid sodium salt],percent Bodipy-positive cells,,46.8 ± 11%
C=C1/C(=C\C=C2/CCC[C@]3(C)[C@@H]([C@H](C)/C=C/[C@H](C)C(C)C)CC[C@@H]23)C[C@@H](O)C[C@@H]1O [Doxercalciferol],percent Bodipy-positive cells,[2],8.13 ± 2.1%
same,percent Bodipy-positive cells,[1],24.4 ± 2.5%
Cc1ccc2c(=O)c3cccc(CC(=O)O)c3oc2c1C [DMXAA (Vadimezan)],percent Bodipy-positive cells,[2],6.78 ± 0.83%
same,percent Bodipy-positive cells,[1],11.7 ± 3.4%
O=C(O)CCC/C=C\C[C@@H]1[C@@H](/C=C/[C@@H](O)COc2cccc(Cl)c2)[C@H](O)C[C@@H]1O [(+)-Cloprostenol],percent Bodipy-positive cells,[3],16.7 ± 1.1%
CCCCCCCCCCCCCCCCCCCCCCCCCCCCCCO [n-Triacontanol],percent Bodipy-positive cells,[3],16 ± 5.6%
CCOC(=O)c1[nH]c2cc(Cl)ccc2c1C(C(=O)NC(C)(C)C)N(C=O)Cc1ccc(Cl)cc1 (configuration not stated),percent Bodipy-positive cells,[2],29.2 ± 2.5%
same,percent Bodipy-positive cells,[1],67.8 ± 0.83%
CCOC(=O)c1ccc(N=Nc2ccc(O)c(CC(=O)O)c2)cc1,percent Bodipy-positive cells,[3],8.53 ± 1.5%
CCCCN1CCCCC1C(=O)Nc1c(C)cccc1C (configuration not stated) [Bupivacaine hydrochloride],percent Bodipy-positive cells,,26.8 ± 7.7%
same,percent Bodipy-positive cells,library stock concentration: 6.2 mM,12.4 ± 7.2%
same,percent Bodipy-positive cells,[1],42.5 ± 7.6%
CCCCN1CCCCC1C(=O)Nc1c(C)cccc1C (configuration not stated) [Bupivacaine HCl],percent Bodipy-positive cells,[2],16.5 ± 4.3%
same,percent Bodipy-positive cells,library stock concentration: 6.9 mM,8.85 ± 6.2%
same,percent Bodipy-positive cells,[1],21.7 ± 5.5%
CO/N=C1\C[C@]2(C[C@@H]3C[C@@H](C/C=C(\C)C[C@@H](C)/C=C/C=C4\CO[C@@H]5[C@H](O)C(C)=C[C@@H](C(=O)O3)[C@]45O)O2)O[C@H](/C(C)=C/C(C)C)[C@H]1C,percent Bodipy-positive cells,[1],40.29 ± 0.066%
CCOC(=O)NNc1nncc2ccccc12 [Todralazine hydrochloride],percent Bodipy-positive cells,,40.4 ± 5%
same,percent Bodipy-positive cells,[1],29.5 ± 1.3%
CCN(CC)CCNC(=O)c1c(C)[nH]c(/C=C2\C(=O)Nc3ccc(F)cc32)c1C.O=C(O)C[C@H](O)C(=O)O [Sunitinib malate],percent Bodipy-positive cells,[4],90.8 ± 3.1%
C(/c1c2cccc1)(=C/CCN(C)C)\c3c(cccc3)C=C2.Cl [Cyclobenzaprine hydrochloride],percent Bodipy-positive cells,,77 ± 2.9%
C[N+](C)(C)[C@@H](Cc1c[nH]c(=S)[nH]1)C(=O)[O-] [Ergothioneine],percent Bodipy-positive cells,library stock concentration: 8.7 mM,9.26 ± 1.3%
Cn1cc(C2=C(c3c4n(c5ccccc35)CCC(CN)C4)C(=O)NC2=O)c2ccccc21 (configuration not stated) [Bisindoylmaleimide X  HCl salt (Ro 31-8425) (10 mM)],percent Bodipy-positive cells,[1],68.3 ± 25%
Cn1cc(C2=C(c3c4n(c5ccccc35)CCC(CN)C4)C(=O)NC2=O)c2ccccc21 (configuration not stated) [Bisindoylmaleimide X HCl salt (Ro 31-8425) (2 mM)],percent Bodipy-positive cells,[4],13.8 ± 2.5%
Cn1cc(C2=C(c3c4n(c5ccccc35)CCC(CN)C4)C(=O)NC2=O)c2ccccc21 (configuration not stated) [Bisindoylmaleimide X HCl salt (Ro 31-8425) (0.4 mM)],percent Bodipy-positive cells,[5],5.89 ± 1.1%
O=C1C(=O)c2ccccc2C(O)=C1C1CCC(c2ccc(Cl)cc2)CC1 (configuration not stated) [Atovaquone],percent Bodipy-positive cells,[2],7.74 ± 0.74%
same,percent Bodipy-positive cells,[1],11.3 ± 3.6%
CC(=O)N[C@@H](C=O)[C@@H](O)[C@H](O)[C@H](O)CO [Acetylglucosamine],percent Bodipy-positive cells,[1],26.8 ± 10%
CCCCC/C=C\C/C=C\C/C=C\C/C=C\CCCC(=O)C(F)(F)F [Arachidonyl Trifluoromethyl Ketone],percent Bodipy-positive cells,[3],8.25 ± 2%
COC1CCN(C(=O)c2cc(Cc3n[nH]c(=O)c4ccccc34)ccc2F)CC1,percent Bodipy-positive cells,[2],11.8 ± 7.5%
same,percent Bodipy-positive cells,[1],37.7 ± 3%
C=C(C)[C@@H](CC=C(C)C)C[C@@]12C[C@@H](CC=C(C)C)C(C)(C)[C@@](CC=C(C)C)(C(=O)C(C(=O)c3ccc(O)c(O)c3)=C1O)C2=O [Garcinol],percent Bodipy-positive cells,library stock concentration: 80 uM,43.9 ± 16%
same,percent Bodipy-positive cells,[5],45.7 ± 2.9%
same,percent Bodipy-positive cells,[4],41.6 ± 1.6%
same,percent Bodipy-positive cells,[1],42.4 ± 15%
O=c1[nH]c(=O)c2ccccc2o1,percent Bodipy-positive cells,[1],31.7 ± 15%
O=S1(=O)c2cccc3cccc(c23)N1CCCN1CCN(c2ccc(F)cc2)CC1 [Fananserin],percent Bodipy-positive cells,[1],10.58 ± 0.079%
N=C(NC(=O)c1nc(Cl)c(N)nc1N)Nc1ccccc1 [Phenamil],percent Bodipy-positive cells,library stock concentration: 16.4 mM,98.3 ± 1.1%
Nc1ccn([C@@H]2O[C@H](CO)[C@@H](O)[C@@H]2O)c(=O)n1 [Cytarabine],percent Bodipy-positive cells,[1],12.6 ± 2.8%
"Nc1ccn([C@@H]2O[C@H](CO)[C@@H](O)[C@@H]2O)c(=O)n1 [2(1H)-Pyrimidinone, 4-amino-1-?-D-arabinofuranosyl- [CAS]]",percent Bodipy-positive cells,[1],11.1 ± 1.8%
Nc1ccn([C@@H]2O[C@H](CO)[C@@H](O)[C@@H]2O)c(=O)n1 [Cytosine-1-beta-D-arabinofuranoside hydrochloride],percent Bodipy-positive cells,[1],46.9 ± 20%
Nc1ncnc2c1ncn2C1CCCO1 (configuration not stated),percent Bodipy-positive cells,[1],8.73% and 7.83%
same,percent Bodipy-positive cells,library stock concentration: 24.4 mM,21.7 ± 6.4%
N#Cc1c(-c2ccccc2)no[n+]1[O-] [Furoxan],percent Bodipy-positive cells,library stock concentration: 26.7 mM,99.2 ± 1.2%
Cc1cc(C)c(S(=O)(=O)n2cc(C)cc2C)c(C)c1,percent Bodipy-positive cells,[2],38.8 ± 15%
same,percent Bodipy-positive cells,[1],40.3 ± 2.1%
COc1ccnc(C[S+]([O-])c2nc3cc(OC(F)F)ccc3[nH]2)c1OC (configuration not stated) [Pantoprazole],percent Bodipy-positive cells,library stock concentration: 5.2 mM,11.3% and 13.5%
same,percent Bodipy-positive cells,[1],43.1 ± 13%
COc1ccnc(C[S+]([O-])c2nc3cc(OC(F)F)ccc3[nH]2)c1OC (configuration not stated),percent Bodipy-positive cells,[1],8.36 ± 2.8%
Cc1[nH]c2ccccc2c1CCNCc1ccc(/C=C/C(=O)NO)cc1 [Panobinostat (LBH589)],percent Bodipy-positive cells,[2],67.2 ± 7.7%
same,percent Bodipy-positive cells,[1],88.2 ± 2.7%
Cc1[nH]c(C=C2C(=O)Nc3ccc(S(=O)(=O)N(C)c4cccc(Cl)c4)cc32)c(C)c1C(=O)N1CCN(C)CC1,percent Bodipy-positive cells,[2],99.82 ± 0.25%
same,percent Bodipy-positive cells,[1],99.22 ± 0.44%
CC#CCC(C)[C@@H](O)/C=C/[C@@H]1[C@H]2C/C(=C\CCCC(=O)O)C[C@H]2C[C@H]1O (stereo partly drawn) [5-cis-15(R)-Iloprost],percent Bodipy-positive cells,[3],8.98 ± 2.7%
Cc1ccc(NC(=O)c2ccc(CN3CCN(C)CC3)cc2)cc1Nc1nc(-c2cccnc2)cs1 [Masitinib (AB1010)],percent Bodipy-positive cells,[2],88 ± 2.2%
same,percent Bodipy-positive cells,[1],89.7 ± 3.3%
